From paper PMC7998036
Results are given in words; binding and its absence hold for the method and conditions named. Binding seen in cells or lysates may run through a third protein. Binding calls can cover weak binding; strength is not graded here. Where a sequence is shown, tags or fusion partners need not be part of it.

Target: T1, N-Myc-Rab13 (UniProt P51153)
T1 sequence: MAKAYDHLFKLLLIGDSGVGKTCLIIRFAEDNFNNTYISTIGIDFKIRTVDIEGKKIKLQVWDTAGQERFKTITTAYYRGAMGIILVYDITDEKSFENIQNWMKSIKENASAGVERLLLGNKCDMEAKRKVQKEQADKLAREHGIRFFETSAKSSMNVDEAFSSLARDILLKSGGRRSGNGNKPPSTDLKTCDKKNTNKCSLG
Assay: co-IP; HEK293T co-transfected for 48 h with tagged constructs; 200 μL lysate with 30 μL beads (Myc-Tag, α-HA, IgG: 10 min at room temperature; FLAG: overnight at 4 °C); washed three times with TBST or TBS; immunoblot with α-HA or α-FLAG

binding: binds
Substance: N-3xHA-RabGAP1L WT (Rab GTPase-activating Protein 1-like) (human)
